We go through two molecules from publication PMC10784507.

Amino acid sequences for entries named in this document (tags omitted). A change or cut given only in a name is not applied to a line headed by its entry. Residues count along the entry.
UniProt Q5VUM1: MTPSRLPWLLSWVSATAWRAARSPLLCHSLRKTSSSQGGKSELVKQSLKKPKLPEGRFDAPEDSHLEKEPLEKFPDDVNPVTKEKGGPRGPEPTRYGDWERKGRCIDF
FLAG-SDHAF4 (mature, residues 20-108): residues 20-108 of Q5VUM1
His6-SDHAF4^30-108: residues 30-108 of Q5VUM1
UniProt P31040, residues 43-664: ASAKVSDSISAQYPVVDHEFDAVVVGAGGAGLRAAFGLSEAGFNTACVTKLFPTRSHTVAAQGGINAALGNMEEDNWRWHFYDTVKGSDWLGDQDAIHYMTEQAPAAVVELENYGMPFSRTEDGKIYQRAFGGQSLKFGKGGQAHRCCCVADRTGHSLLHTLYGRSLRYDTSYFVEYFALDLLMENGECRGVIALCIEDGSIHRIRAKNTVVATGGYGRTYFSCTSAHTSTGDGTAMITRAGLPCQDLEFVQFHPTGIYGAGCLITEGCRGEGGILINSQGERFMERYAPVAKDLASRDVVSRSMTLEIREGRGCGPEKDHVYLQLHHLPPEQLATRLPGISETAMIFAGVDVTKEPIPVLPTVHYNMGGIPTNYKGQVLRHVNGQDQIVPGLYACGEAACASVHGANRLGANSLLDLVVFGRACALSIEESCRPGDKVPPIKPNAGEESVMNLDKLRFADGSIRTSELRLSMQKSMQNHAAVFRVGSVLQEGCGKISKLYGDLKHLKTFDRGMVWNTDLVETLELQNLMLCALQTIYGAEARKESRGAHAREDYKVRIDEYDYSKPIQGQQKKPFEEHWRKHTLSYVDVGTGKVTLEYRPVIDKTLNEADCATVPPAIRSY

No constants are given. Whether binding was seen depends on the method and setting. Some results given as binding are weak or reduced against the parent protein; the word gives no strength. Where a sequence is shown, tags or fusion partners need not be part of it.

Assay [1] has as its target His6-SDHAF4^30-108 (human) (UniProt Q5VUM1). The assay is described as follows: crystal structure; SDHA-AF2-AF4: holo-SDHA-SDHAF2 with His6-SDHAF4, 5 h at 4 °C, SEC; crystals in 0.2 M ammonium citrate tribasic pH 8.0, 20% PEG 3,350, 1 mM DTT, 25 °C; both purified.
In assay [2] the target is holo-SDHA with covalently attached FAD (human) (UniProt P31040). Described as above.
Assay [3] addresses FLAG-SDHAF4 (mature, residues 20-108) (human) (UniProt Q5VUM1). The experiment in a line: pull-down; ANTI-FLAG M2 affinity gel; SDHAF2 (8 µM) with FLAG-SDHAF4 (4 µM), or SDHAF2 alone; 40 mM HEPES pH 7.5, 0.5 mM DTT, 30 min 25 °C; SDS-PAGE, Coomassie, densitometry; both purified.

B1: untagged mature 37SDHAF2 (residues 37-166), co-expressed with His6-SDHA (protein, UniProt Q9NX18 37-166)
chain: GDSPTDSQKDMIEIPLPPWQERTDESIETKRARLLYESRKRGMLENCILLSLFAKEHLQHMTEKQLNLYDRLINEPSNDWDIYYWATEAKPAPEIFENEVMALLRDFAKNKNKEQRLRAPDLEYLFEKPR
For B1, the binding result is “no binding” in assay [1] and “binds” in assay [2].

B2: SDHAF2 (residues 37-166, His6 tag removed with TEV protease) (protein, UniProt Q9NX18 37-166)
chain: B1 chain
For B2, the binding entry in assay [3] was “no binding (tested: 8 µM SDHAF2, 4 µM FLAG-SDHAF4)”.
